The text below walks through data of PMC10123117.

Amino acid sequences for entries named in this document (tags omitted).
UniProt Q6A4J8: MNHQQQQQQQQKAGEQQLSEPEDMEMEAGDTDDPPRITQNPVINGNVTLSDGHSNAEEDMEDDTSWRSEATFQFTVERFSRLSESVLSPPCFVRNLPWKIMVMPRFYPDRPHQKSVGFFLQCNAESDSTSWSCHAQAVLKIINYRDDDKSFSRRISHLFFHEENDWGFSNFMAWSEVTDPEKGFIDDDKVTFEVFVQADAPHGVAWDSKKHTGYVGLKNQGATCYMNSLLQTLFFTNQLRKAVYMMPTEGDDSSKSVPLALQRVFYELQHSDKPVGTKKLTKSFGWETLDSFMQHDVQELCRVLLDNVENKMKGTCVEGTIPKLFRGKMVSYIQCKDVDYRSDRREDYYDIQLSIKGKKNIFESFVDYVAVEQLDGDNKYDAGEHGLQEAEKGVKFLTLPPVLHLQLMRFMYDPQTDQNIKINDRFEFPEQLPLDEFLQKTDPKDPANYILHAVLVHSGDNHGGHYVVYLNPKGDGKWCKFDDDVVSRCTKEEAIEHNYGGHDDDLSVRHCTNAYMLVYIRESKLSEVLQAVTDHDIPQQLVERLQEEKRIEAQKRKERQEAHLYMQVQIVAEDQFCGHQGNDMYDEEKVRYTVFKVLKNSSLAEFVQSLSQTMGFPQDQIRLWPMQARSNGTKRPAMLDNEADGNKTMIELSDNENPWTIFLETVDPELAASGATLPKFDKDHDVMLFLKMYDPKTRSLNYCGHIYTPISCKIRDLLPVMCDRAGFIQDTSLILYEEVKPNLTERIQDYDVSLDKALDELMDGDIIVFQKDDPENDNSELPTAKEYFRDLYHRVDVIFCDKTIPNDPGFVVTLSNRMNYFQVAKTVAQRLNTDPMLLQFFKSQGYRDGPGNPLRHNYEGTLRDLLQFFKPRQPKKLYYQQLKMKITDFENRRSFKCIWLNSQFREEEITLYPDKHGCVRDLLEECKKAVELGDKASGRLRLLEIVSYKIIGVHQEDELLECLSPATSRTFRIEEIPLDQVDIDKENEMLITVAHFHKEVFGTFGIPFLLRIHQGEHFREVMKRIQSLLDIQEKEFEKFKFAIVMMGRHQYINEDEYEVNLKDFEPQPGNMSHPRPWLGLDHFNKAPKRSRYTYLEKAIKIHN

This experiment addresses USP7 (mouse (endogenous in E14TG2a ES cells)) (UniProt Q6A4J8). As to the kind of experiment: affinity purification with mass spectrometry; anti-USP7 immunoprecipitation of endogenous USP7 from WT mESC lysate, Usp7-KO ES cells as control, three independent experiments; nanoLC-MS/MS, spectral counts; enriched: fold change >4 and adjusted P <0.05.

Results are given in words; binding and its absence hold for the method and conditions named. Binding seen in cells or lysates may run through a third protein. These calls come from enrichment with a bait or labelling near it, and not all partners need be listed.

B1: KDM2B (protein, UniProt Q6P1G2 1-1309)
chain: MEAEKDSGRRLRAIDRQRYDENEDLSDVEEIVSVRGFSLEEKLRSQLYQGDFVHAMEGKDFNYEYVQREALRVPLVFRDKDGLGIKMPDPDFTVRDVKLLVGSRRLVDVMDVNTQKGTEMSMSQFVRYYETPEAQRDKLYNVISLEFSHTKLEHLVKRPTVVDLVDWVDNMWPQHLKEKQTEATNALAEMKYPKVKKYCLMSVKGCFTDFHIDFGGTSVWYHVFRGGKIFWLIPPTLHNLALYEEWVLSGKQSDIFLGDRVERCQRIELKQGYTFFIPSGWIHAVYTPVDSLVFGGNILHSFNVPMQLRIYEIEDRTRVQPKFRYPFYYEMCWYVLERYVYCVTQRSYLTQEYQRELMLIDAPRKTSVDGFSSDSWLDMEEESCEQQPQEEEEEEEDKEEEGDGADKTPKPPTDDPTSPTSTPPEDQDSTGKKPKAPAIRFLKRTLSNESEESVKSTSMPTDDPKTPTGSPATEVSTKWTHLTEFELKGLKALVEKLESLPENKKCVPEGIEDPQALLEGVKNVLKEHVDDDPTLAITGVPVVSWPKKTAKNRVVGRPKGKLGPASAVKLAANRTTAGARRRRTRCRKCEACLRTECGECHFCKDMKKFGGPGRMKQSCIMRQCIAPVLPHTAVCLVCGEAGKEDTVEEEEGKFNLMLMECSICNEIIHPGCLKIKESEGVVNDELPNCWECPKCNHAGKTGKQKRGPGFKYASNLPGSLLKEQKMNRDNKEGQEPAKRRSECEEAPRRRSDEHPKKVPADGILRRKSDDVHLRRKRKYEKPQELSGRKRASSLQTSPGSSSHLSPRPPLGSSLSPWWRSSLTYFQQQLKPGKEDKLFRKKRRSWKNAEDRLSLANKPLRRFKQEPEDDLPEAPPKTRESDQSRSSSPTAGPSTEGAEGPEEKKKVKMRRKRRLVNKELSKELSKELNHEIQKTESTLAHESQQPIKSEPESENDEPKRPLSHCERPHRFSKGLNGTPRELRHSLGPGLRSPPRVMSRPPPSASPPKCIQMERHVIRPPPISPPPDSLPLDDGAAHVMHREVWMAVFSYLSHRDLCVCMRVCRTWNRWCCDKRLWTRIDLNRCKSITPLMLSGIIRRQPVSLDLSWTNISKKQLSWLINRLPGLRDLVLSGCSWIAVSALCSSSCPLLRTLDVQWVEGLKDAQMRDLLSPPTDNRPGQMDNRSKLRNIVELRLAGLDITDVSLRLIIRHMPLLSKLQLSYCNHINDQSINLLTAVGTTTRDSLTEVNLSDCNKVTDLCLSFFKRCGNICHIDLRYCKQVTKEGCEQFIAEMSVSVQFGQVEEKLLQKLS
For B1, the binding result is listed as “binds”.
